Measurements from PMC9389230, “Connective tissue growth factor-targeting DNA aptamer suppresses pannus formation as diagnostics and therapeutics for rheumatoid arthritis”.
For at least one entry, the source does not settle the construct or the ends of the probe. For some of these results: At least one result comes from cells or an extract, where the contact may be indirect. For some of these results: Where a protein sequence is shown, tags need not be part of it. For some of these results: At least one verdict was read from the data and is not stated in words by the source.

Key:
[1] = target: T1, CTGF (CCN2) (UniProt P29279); assay: dot blot; conditions: minimum protein 2 ng; 3' PEG (high molecular mass); dot blot: nitrocellulose, 10% BSA block, 1 uM biotinylated aptamer, room temperature; pH not stated; commercial protein; label: biotin or Cy5 depending on assay; single-stranded DNA
T1 sequence (looked up, limits assumed): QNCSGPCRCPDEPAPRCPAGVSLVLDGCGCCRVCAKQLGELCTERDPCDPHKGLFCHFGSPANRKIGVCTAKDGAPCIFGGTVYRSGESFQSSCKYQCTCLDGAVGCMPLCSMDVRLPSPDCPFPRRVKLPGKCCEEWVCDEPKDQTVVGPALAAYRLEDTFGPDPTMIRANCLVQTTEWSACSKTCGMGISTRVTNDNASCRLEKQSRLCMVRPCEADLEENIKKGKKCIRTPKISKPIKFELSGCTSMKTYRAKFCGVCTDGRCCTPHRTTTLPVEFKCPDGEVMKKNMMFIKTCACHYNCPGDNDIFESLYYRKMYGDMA

[2] = tested on: CTGF TSP1 domain / deletion mutants (SPR) (human); assay: SPR; conditions: 3' PEG (high molecular mass); SPR: PBS running buffer, CTGF on CM5 chip, aptamer 9.375-600 nM, 10 ul/min (SA chip with biotinylated aptamer for cytokines and CTGF deletion mutants); recombinant protein; label: biotin or Cy5 depending on assay; single-stranded DNA
[3] = target: CTGF TSP1 domain / deletion mutants containing it (human) (UniProt P29279); assay: cell-surface immunofluorescence; conditions: bound most tightly among domains; 3' PEG (high molecular mass); dot blot: nitrocellulose, 10% BSA block, 1 uM biotinylated aptamer, room temperature; pH not stated; protein on the cell surface; protein details: N-terminal FLAG, C-terminal GPI anchor; label: biotin or Cy5 depending on assay; single-stranded DNA
[4] = target: T2, murine CTGF (serum) (mouse) (UniProt P29268); assay: pull-down, Western blot; conditions: 3' PEG (high molecular mass); dot blot: nitrocellulose, 10% BSA block, 1 uM biotinylated aptamer, room temperature; pH not stated; protein in an extract; label: biotin or Cy5 depending on assay; single-stranded DNA
T2 sequence (looked up, limits assumed): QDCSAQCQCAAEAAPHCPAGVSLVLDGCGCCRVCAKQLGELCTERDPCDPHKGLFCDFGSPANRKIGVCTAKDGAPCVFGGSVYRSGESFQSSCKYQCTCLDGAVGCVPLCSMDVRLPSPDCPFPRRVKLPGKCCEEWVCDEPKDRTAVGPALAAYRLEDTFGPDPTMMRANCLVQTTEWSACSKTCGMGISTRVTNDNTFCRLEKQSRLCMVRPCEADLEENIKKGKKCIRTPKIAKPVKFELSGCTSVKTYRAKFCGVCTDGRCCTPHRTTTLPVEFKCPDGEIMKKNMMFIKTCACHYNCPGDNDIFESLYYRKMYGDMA

Measured: binding result

AGGCCGGGAGGGTACCCATTGATGGTGTGATGACTGCCT [AptW2-1-39-PEG]
binds: [1] | [2] | [3] | [4]
